Measurements published in PubChem BioAssay AID1347075 (National Center for Advancing Translational Sciences (NCATS), 2019).
In all, about 400,000 compounds went through this assay and about 5,500 (1.4%) were called active. The shares of active, inactive and inconclusive entries below differ from those in the screen. Calls come from the whole dose curve; as a rule, active = well fitted cell-killing curve with a large enough effect; inconclusive = small, poorly fitted or top-dose-only effect, or effect the other way; inactive = flat fitted curve, though single readings scatter. Potencies of inconclusive entries are doubtful fits and often do not repeat.

Assay: qHTS assay for MDR1-selective chemotherapeutics: Primary screen using the parental adenocarcinoma cell KB-3-1; note: nearly all actives have a fitted effect of over 60% in size
Settings: KB-3-1 viability, CellTiter-Glo ATP luminescence, 72 h; activity change, negative = cytotoxic: at 46.1 µM (top of the series)
How it was run: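 Multi-concentration cytotoxicity screen in KB-3-1 cells grown in DMEM lacking phenol red with 10% FBS. After 72 h at 37 °C with compound, ATP-dependent luminescence was recorded.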
% is set by controls: 0 for no effect and ±100 for the full control effect; potency is the fitted concentration of half-maximal effect.

Row | Compound | Potency | activity change, negative = cytotoxic
1 | NC(N)=N/N=C/c1ccc(OCc2ccccc2)cc1 | inconclusive: 32.6 µM [cytotoxic, single point] | 
2 | O=C(CCc1nc2ccccc2s1)N1CCN(c2ccccc2)CC1 |  | inactive: 5.48%
3 | O=C(O)c1ccc(N/N=C/c2ccc3nccnc3c2)cc1 | inconclusive: 13 µM [cytotoxic, partial curve] | 
4 | COc1ccc(CNC(=O)CCc2c(C)nn(-c3ccc(N4CCOCC4)nn3)c2C)cc1 |  | inactive: 2.14%
5 | COC(=O)c1c(NC(=O)c2c(OC)cccc2OC)sc2c1C(C(=O)OC)CC2 (stereo unspecified) | inconclusive: 29.1 µM [cytotoxic, single point] | 
6 | C[n+]1c(-c2ccccc2)cc2c(=Cc3ccccc3)c3ccccc3n21 | inconclusive: 3.26 µM [cytotoxic, full curve, poor fit] | 
7 | COC(=O)C1=C(C)NC2=C(C(=O)CC(C)(C)C2)C1c1ccccn1 (stereo unspecified) |  | inactive: -0.82%
8 | O=C(O)C1(c2ccccc2)CCN(S(=O)(=O)c2ccc(Br)cc2)CC1 |  | inactive: -5.52%
9 | CCOc1ccc(/C=C/c2ccc3ccccc3n2)cc1OCC | inconclusive: 14.6 µM [cytotoxic, partial curve, poor fit] | 
10 | CCSc1nc2sc3c(c2c(=O)n1-c1ccc(C)cc1)CCN(C)C3 | inconclusive: 23.1 µM [cytotoxic, partial curve, poor fit] | 
11 | CCOC(=O)N1CCC(NC(=S)Nc2ccc3nc(N4CCN(CC)CC4)cc(C)c3c2)CC1 | inconclusive: 18.4 µM [cytotoxic, partial curve, poor fit] | 
12 | COc1ccccc1C(=O)NCCC(=O)NCC1COc2ccccc2O1 (stereo unspecified) |  | inactive: -1.78%
13 | CC1=C([N+](=O)[O-])C(c2cccc(Br)c2)C2=C(N1)c1ccccc1C2=O (stereo unspecified) | active: 1.64 µM | 
14 | Cc1ccc(CSCC(=O)Nc2c(C)n(C)n(-c3ccccc3)c2=O)cc1 |  | inactive: 11.8%
15 | CC1CSc2n(-c3cccc(C(F)(F)F)c3)cc(-c3ccccc3)[n+]21 (stereo unspecified) | inconclusive: 16.4 µM [cytotoxic, partial curve, poor fit] | 
16 | COc1ccc(CNC(=O)CCNC(=O)C2CCN(S(=O)(=O)c3ccc(OC)cc3)CC2)cc1 |  | inactive: -0.339%
17 | CCOC(=O)Nc1ccc2nc(-c3cscn3)[nH]c2c1 | active: 2.59 µM | 
18 | COc1ccc2cc3c(N)nn(C(=O)c4ccc(F)cc4Cl)c3nc2c1 | inconclusive: 29.1 µM [cytotoxic, single point] | 
19 | CCc1ccc(NC(=O)N(CCCN2CCOCC2)Cc2cccs2)cc1 |  | inactive: 8.68%
20 | O=c1cc(-c2ccccc2)[nH]n1-c1nc2ccccc2s1 | inconclusive: 11.6 µM [cytotoxic, partial curve, poor fit] | 
21 | O=C(NC1CCCC1)C(c1ccc(F)cc1)N(Cc1ccc(F)cc1)C(=O)c1ccn[nH]1 (stereo unspecified) | inconclusive: 29.1 µM [rising, single point] | 
22 | CCC(C)NC(=O)C1CCC(CNS(=O)(=O)c2ccc3c(c2)CC(C)N3C(=O)C2CC2)CC1 (stereo unspecified) |  | inactive: -5.11%
23 | CSc1ncc2[nH]c(C(O)c3ccccc3)nc2n1 (stereo unspecified) | active: 3.26 µM | 

Row | Compound | Potency | activity change, negative = cytotoxic
24 | C/C(CCC(C)C)=N\NC(=O)COc1ccccc1-c1ccccc1 | inconclusive: 29.1 µM [rising, single point] | 
25 | O=C(/C=C/c1ccccc1)Nn1cnc2ccccc2c1=O |  | inconclusive: -52.8%
26 | COc1ccccc1-n1cnc2cc(NC(=O)c3ccco3)ccc21 | inconclusive: 29.1 µM [cytotoxic, single point] | 
27 | Cc1ccccc1-c1cc(C(=O)Nc2sc(C(=O)OC(C)C)c(C)c2C#N)c2ccccc2n1 | active: 5.17 µM | 
28 | O=C1NC[C@@H](CCCCN2C[C@H](Cc3ccc(O)cc3)N(CC3CCCCC3)C(=O)C2=O)N(CC2CCCCC2)C1=O | inconclusive: 25.9 µM [rising, single point] | 
29 | Cc1c([N+](=O)[O-])c(C(=O)NC2CCCC2)nn1C | inconclusive: 32.6 µM [cytotoxic, partial curve, poor fit] | 
30 | C=CC[C@H](CC(=O)N(CCO)Cc1ccccc1)C(=O)N[C@@H](COC(=O)[C@H](CC=C)CC(=O)OC(C)(C)C)Cc1c[nH]c2ccccc12 | inconclusive: 29.1 µM [cytotoxic, single point] | 
31 | CC1(C)OC(=O)C2=C(CC(CCc3ccccc3)OC2c2ccccc2)O1 (stereo unspecified) | inconclusive: 16.4 µM [cytotoxic, single point] | 
32 | Oc1ccc(C23CCCC2C2(CCCC2)c2ccc(O)cc2O3)c(O)c1 (stereo unspecified) | inconclusive: 29.1 µM [cytotoxic, partial curve, poor fit] | 
33 | CCc1cc(Cn2nc(-c3ccccc3)cc2C(=O)NCc2cccc(Br)c2)on1 | inconclusive: 29.1 µM [cytotoxic, single point] | 
34 | CCOc1ccc(-c2[nH]ncc2Oc2ccccc2OC)c(O)c1 | inconclusive: 32.6 µM [cytotoxic, single point] | 
35 | CC(C)NC(=O)C1(C#N)C=C1c1ccccc1 (stereo unspecified) | active: 8.2 µM | 
36 | COc1ccc(NC(=O)CCCn2c(=O)c3sccc3n(Cc3ccc(C)cc3)c2=O)cc1 |  | inactive: -12.5%
37 | CCOC(=O)c1c[nH][nH]c1=O |  | inactive: 1.97%
38 | COc1ccc(Cc2nnc(-c3ccc(F)cc3)o2)cc1OC | inconclusive: 14.6 µM [cytotoxic, partial curve] | 
39 | CS(=O)(=O)N1CCN(c2ccccc2NC(=O)c2ccc([N+](=O)[O-])o2)CC1 |  | inactive: -28.2%
40 | COC(=O)c1ccc(CSc2nc3ccncc3n2Cc2ccc(F)cc2)cc1 |  | inactive: 1.34%
41 | C#CC[N+](C)(C)CC#Cc1ccc(Cl)cc1 | inconclusive: 29.1 µM [cytotoxic, single point] | 
42 | COc1ccc(Cl)cc1-c1nc(SCC(=O)N(C)C)n[nH]1 | inconclusive: 4.11 µM [rising, partial curve, poor fit] | 
43 | CSC[C@H]1CN(CCc2ccccc2)C(=O)[C@@H]1CC(=O)Nc1ccccc1 |  | inactive: -2.99%
44 | CN(C)c1cc[n+](CC(=O)c2cccs2)cc1 |  | inactive: -17.9%
45 | Cc1ccc(C(c2nnnn2C2CCCC2)N2c3ccccc3CC2C)cc1 (stereo unspecified) | inconclusive: 29.1 µM [cytotoxic, single point] | 
46 | Cc1cc(C)cc(OCC(=O)N2N=C(C(F)(F)F)CC2(O)C(C)(C)C)c1 (stereo unspecified) | inconclusive: 29.1 µM [cytotoxic, single point] | 

Part of the list above in order of number of heavy atoms, descending.
Row | Compound | Potency | activity change, negative = cytotoxic
39 | CS(=O)(=O)N1CCN(c2ccccc2NC(=O)c2ccc([N+](=O)[O-])o2)CC1 |  | inactive: -28.2%
24 | C/C(CCC(C)C)=N\NC(=O)COc1ccccc1-c1ccccc1 | inconclusive: 29.1 µM [rising, single point] | 
44 | CN(C)c1cc[n+](CC(=O)c2cccs2)cc1 |  | inactive: -17.9%
